Values of other authors, collected in patent US8461186B2, “Use of N-piperidine derivatives for the treatment of neurodegenerative pathologies” (Medestea Research & Production S.p.A., priority 2004, dated 2013).
Some results were stated once for a whole list of compounds, not compound by compound. At least one compound was matched to its structure with a doubt left.

Conditions: in vivo; cited from earlier work

Q: With `CC1(C)CCCC(C)(C)N1[O]` [Tempo] as the molecule, how does the half-life read?
A: Its half-life is “less than 3 minutes”.

Q: For `CC1(C)CC(O)CC(C)(C)N1[O]` [Tempol], which half-life is on record?
A: Its half-life is “less than 3 minutes”.
